From paper doi:10.1101/2022.09.22.509106

B1: neuronal pentraxin 1 (Nptx1), purified recombinant, His-tagged (protein, UniProt Q15818 23-432)
chain: QDFGPTRFICTSVPVDADMCAASVAAGGAEELRSSVLQLRETVLQQKETILSQKETIRELTAKLGRCESQSTLDPGAGEARAGGGRKQPGSGKNTMGDLSRTPAAETLSQLGQTLQSLKTRLENLEQYSRLNSSSQTNSLKDLLQSKIDELERQVLSRVNTLEEGKGGPRNDTEERVKIETALTSLHQRISELEKGQKDNRPGDKFQLTFPLRTNYMYAKVKKSLPEMYAFTVCMWLKSSATPGVGTPFSYAVPGQANELVLIEWGNNPMEILINDKVAKLPFVINDGKWHHICVTWTTRDGVWEAYQDGTQGGSGENLAPYHPIKPQGVLVLGQEQDTLGGGFDATQAFVGELAHFNIWDRKLTPGEVYNLATCSTKALSGNVIAWAESHIEIYGGATKWTFEACRQIN
B2: neuronal pentraxin 2 (Nptx2), purified recombinant, His-tagged (protein, UniProt P47972 16-431)
chain: GAQDSPAPGSRFVCTALPPEAVHAGCPLPAMPMQGGAQSPEEELRAAVLQLRETVVQQKETLGAQREAIRELTGKLARCEGLAGGKARGAGATGKDTMGDLPRDPGHVVEQLSRSLQTLKDRLESLEHQLRANVSNAGLPGDFREVLQQRLGELERQLLRKVAELEDEKSLLHNETSAHRQKTESTLNALLQRVTELERGNSAFKSPDAFKVSLPLRTNYLYGKIKKTLPELYAFTICLWLRSSASPGIGTPFSYAVPGQANEIVLIEWGNNPIELLINDKVAQLPLFVSDGKWHHICVTWTTRDGMWEAFQDGEKLGTGENLAPWHPIKPGGVLILGQEQDTVGGRFDATQAFVGELSQFNIWDRVLRAQEIVNIANCSTNMPGNIIPWVDNNVDVFGGASKWPVETCEERLLDL

Key:
[1] = molecular target: purified human complement C3 (human); experiment: ELISA
[2] = molecular target: purified human complement C4 (human); experiment: ELISA

Binder | binding [1] | binding [2]
B1 | no binding (tested: 4 µg/mL) | no binding (tested: 4 µg/mL)
B2 | no binding (tested: 4 µg/mL) | no binding (tested: 4 µg/mL)

Results are given in words; binding and its absence hold for the method and conditions named. Tags and fused reporters may be left off the sequences shown.
